# The list shows a part of the results. The main result of the screen is listed elsewhere. These columns were measured beside it and carry no call. The list favours compounds with an active or inconclusive main result. Potencies come from curve fits of mixed quality, noted in brackets.
# Assay: qHTS Assay for Lipid Storage Modulators in Drosophila S3 Cells;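 on cell number change: cells counted by Cell Tracker Red CMTPX staining in the red channel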
# Conditions: BODIPY lipid droplet fluorescence, 18-24 h; for cell number change: measured here: cell count max response, cells fed with added oleic acid
# How it was run: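 Drosophila S3 cells loaded with oleic acid (400 uM, as added) and compounds at several concentrations; lipid droplets imaged by 488-nm laser-scanning cytometry, 500–530 nm intensity and object ratio to cell channel. Percent activity normalized to 20 uM Triacsin C.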
# [1] = measured here: cell number channel AC50, cells fed with added oleic acid
# [2] = measured here: lipid fluorescence (Fed channel) AC50, cells fed with added oleic acid
Compound,cell number change [%],AC50 [1],AC50 [2]
CC(C)CCNC(=O)C(c1ccc(O)cc1)N(Cc1ccco1)C(=O)CCC(=O)Nc1nccs1 (centres undefined),6.52,–,–
CC1CCN(C(=O)CSc2ccc(-c3cccnc3)nn2)CC1,-15.2,"2310 nM [rising, partial curve]",–
CCOC(=O)COc1cccc2c(=O)n(CC(=O)NCc3ccccc3)ccc12,-11.1,–,"3660 nM [rising, single point]"
COc1ccc(-c2cccc(NC(=O)c3ccc4c(c3)OCO4)c2)nn1,16.8,–,"2590 nM [rising, partial curve]"
CC(C)(C)c1ccc(C(=O)NCC(=O)N2CCNC(=O)C2)cc1,25.6,–,"29100 nM [rising, single point]"
COc1ccc(CN(Cc2nc3ccccc3c(=O)[nH]2)C(=O)C(C)(C)C)cc1,9.41,–,"2910 nM [rising, partial curve, poor fit]"
CN(C)CCNC(C(=O)Nc1cccc(C(F)(F)F)c1)c1ccccc1 (centres undefined),-35.9,–,"164 nM [falling, full curve, poor fit]"
CCCC(C(=O)NC1CCCC1)N(CCN(CC)CC)C(=O)c1snc(C(N)=O)c1N (centres undefined),9.21,–,–
Cc1ccc(CSc2ccc3nnc(-c4ccccn4)n3n2)cc1,-25.2,–,"820 nM [falling, full curve]"
CC(=O)c1ccc(NC(=S)NC2CCCC(C)C2C)cc1 (centres undefined),17.2,–,"231 nM [falling, full curve]"
CCOC(=O)C1=C(C)NC(=O)NC1c1ccc2c(c1)OCO2 (centres undefined),–,"2910 nM [rising, partial curve]",–
Cc1[nH]nc2c1C(c1ccsc1C)C(C#N)=C(N)O2 (centres undefined),3.69,–,–
N#Cc1c2n(c(=S)n(-c3ccc(F)cc3)c1=O)CCCCC2,12.5,–,"16400 nM [rising, single point]"
Cc1ccc(NC(=O)COc2ccc3c(c2)CCC3)nc1,3.37,"51.7 nM [falling, full curve, poor fit]",–
Cn1c(C(=O)O)cc2cc(F)ccc21,16.7,–,"6510 nM [falling, single point]"
O=C(COc1ccc(Cl)cc1)NCc1nnc(SCC(=O)N2CCCc3ccccc32)o1,-1.04,–,"326 nM [rising, single point]"
O=S(=O)(Nc1nc2ccccc2nc1NCCN1CCOCC1)c1cccc(Cl)c1,1.95,–,–
COC(=O)C(C)NC(=O)C12CC3CC(CC(C3)C1)C2 (centres undefined),-52.1,"29100 nM [falling, single point]","29100 nM [falling, single point]"
O=C(CSc1nc2ccccc2s1)N/N=C/c1ccc(C(=O)O)cc1,9.13,–,"82 nM [falling, full curve, poor fit]"
CCN(Cc1ccncc1)Cc1nc(-c2ccc(C(=O)OC)cc2)no1,-11.4,–,–

Compound,cell number change [%],AC50 [1],AC50 [2]
Cc1nc(-c2cccc(N)c2)cs1,50.4,"25900 nM [rising, single point]",–
CCn1c(SCC(=O)Nc2cccc(OC)c2)nc2ccccc2c1=O,-35.4,"651 nM [falling, partial curve, poor fit]","411 nM [falling, single point]"
Cc1cccc(CCNC(=O)CNS(=O)(=O)c2ccc3nc(C)sc3c2)c1,6.8,–,"20600 nM [rising, partial curve]"
C/C(=N\OC(=O)Nc1ccc(Cl)cc1)c1ncc(C(F)(F)F)cc1N1CCOCC1,42.3,"9200 nM [rising, partial curve, poor fit]",–
CCc1nn(CC(=O)N2CCN(c3cc(C)ccc3C)CC2)c(=O)c2cc3occc3n12,-2.65,–,"6510 nM [falling, single point]"
Cc1nc(-c2ccc(S(=O)(=O)Nc3ccc(Br)cc3F)cc2)co1,0.917,–,–
Cc1ccc(NC2CCCN(C(=O)c3ccc(C)c(N4CCNC4=O)c3)C2)cc1C (centres undefined),46.2,"18400 nM [rising, single point]","29100 nM [rising, single point]"
COc1cc(/C=N/N2CCN(c3ccccc3OC)CC2)ccc1OC(C)=O,21.2,"7310 nM [rising, partial curve]","580 nM [falling, single point]"
C=CCSc1ncc(CO)n1Cc1ccccc1,-39.1,"231 nM [falling, partial curve]","366 nM [falling, partial curve]"
CC(C)[C@H](NC(=O)OCc1ccccc1)C(=O)OCc1ccccc1,1.74,–,–
Cc1noc(NS(=O)(=O)c2ccc(NC(=O)CCC3CCCC3)cc2)c1C,–,–,"92 nM [falling, full curve, poor fit]"
COc1ccc(C(=O)O)cc1S(=O)(=O)Nc1cccc(C(F)(F)F)c1,–,–,"23100 nM [falling, partial curve]"
CCn1c2ccccc2c2cc(C3C(C#N)=C(N)OC4=C3C(=O)CC(C)(C)C4)ccc21 (centres undefined),10.1,–,"3660 nM [rising, single point]"
O=C(CCC(=O)N1CCN(S(=O)(=O)c2ccc(Cl)cc2)CC1)Nc1cccc(Br)c1,7.38,–,–
CN(C)CCCN=C(NO)c1ccc(Cl)cc1Cl,-42.3,"82 nM [falling, full curve]","461 nM [falling, full curve]"
Cc1nn(-c2cccc(C(=O)O)c2)c(C)c1Oc1ccccc1O,3.19,–,"4110 nM [falling, single point]"
CCN1C(=O)/C(=C\C=C2/C=CC=CN2CC)SC1=S,-2.31,–,"1030 nM [rising, full curve, poor fit]"
COCCOC(=O)c1c(C)oc2ccc(NS(=O)(=O)c3cccs3)cc12,17.5,–,"58 nM [rising, full curve]"
CC(=O)c1c(NCc2ccccc2)nc(=O)n(-c2ccccc2)c1C,6.14,–,"2910 nM [rising, full curve]"
CN(Cc1ccccc1Br)C(=O)CN1C(=O)NC2(CCCCCC2)C1=O,-30.1,"29100 nM [falling, single point]","4110 nM [falling, single point]"

Compound,cell number change [%],AC50 [1],AC50 [2]
Nc1nc2c(ncn2C2C[C@H](O)[C@@H](CO)O2)c(=O)[nH]1 (some centres undefined),-44,"11600 nM [falling, partial curve]","18400 nM [falling, partial curve, poor fit]"
Cc1ccc(N(Cc2cc3ccc(C)cc3[nH]c2=O)C(=O)c2cccs2)cc1,18.6,"461 nM [rising, full curve, poor fit]","326 nM [rising, full curve, poor fit]"
Cn1cccc1/C=C1\CCC/C(=C\c2cccn2C)C1=O,-157,"6510 nM [rising, single point]",–
CCCc1nn(C)c(C(=O)Nc2ccc(Cl)cc2)c1Cl,7.98,–,"6510 nM [rising, partial curve, poor fit]"
CC(C)NC(=S)N/N=C/c1ccc2c(c1)OCCO2,16.9,–,"1160 nM [rising, partial curve]"
Cc1ccc2nc(SCC(=O)Nc3cc(C(C)(C)C)nn3-c3ccccc3)[nH]c2c1,-39.6,"18400 nM [falling, partial curve]","20600 nM [falling, partial curve]"
CCCN(CCC)CC(O)COc1ccc([N+](=O)[O-])cc1 (centres undefined),-20.7,–,"2910 nM [falling, partial curve]"
COCc1nnc(NS(=O)(=O)c2c(C)cc(C)cc2C)s1,–,–,"29100 nM [falling, single point]"
O=C(CN1C(=O)NC2(CCCc3ccccc32)C1=O)NC1CCCCC1 (centres undefined),-36,–,"25900 nM [falling, partial curve, poor fit]"
Cc1nc(SCc2ccccc2)c2oc3ccccc3c2n1,21.6,–,"2060 nM [rising, partial curve, poor fit]"
Cc1cccc(NC(=S)N2CCN(c3ccccc3)CC2)c1,14.9,–,"32600 nM [rising, single point]"
O=C(O)CC/C(=N/NC(=O)CNC(=O)Cc1ccccc1)c1ccccc1,3.52,–,–
CCCS(=O)(=O)N1CCN(C(=O)c2cccs2)CC1,-96.7,"20600 nM [falling, partial curve]","2060 nM [falling, partial curve]"
CCCN(CCC)S(=O)(=O)c1ccc(C(=O)Nc2ccc(OCC(=O)N3CCOCC3)cc2)cc1,20.1,"82 nM [rising, full curve, poor fit]",–
COc1ccc(OC)c2[nH]c(=O)c(CCNC(C)=O)cc12,-82.2,"1460 nM [falling, partial curve]","20600 nM [falling, partial curve]"
COc1cccc2[nH]c(C(=O)NN)c(N)c12,-17.3,–,"29100 nM [falling, single point]"
COc1ccc(Cl)cc1NS(=O)(=O)c1cccc(C(=O)NCC(C)(C)N2CCOCC2)c1,-2.06,–,"1460 nM [rising, partial curve, poor fit]"
O=C(COC(=O)/C=C/c1ccc(F)cc1)Nc1cccc(S(=O)(=O)N2CCCC2)c1,1.94,"1160 nM [rising, single point]",–
O=C1N=C(N2C=CC(=C3C=CNC=C3)C=C2)/C(=C/N=NC(=O)c2ccccc2)S1,-0.451,–,"580 nM [falling, single point]"
Cc1ccc(-c2nnn(CC(=O)N(c3ccccc3F)C(C(=O)NC3CCCC3)c3ccncc3)n2)o1 (centres undefined),-15.8,–,"4470 nM [falling, partial curve, poor fit]"

# Arranged by SMILES length (low to high): some entries from above
Compound,cell number change [%],AC50 [1],AC50 [2]
COc1cccc2[nH]c(C(=O)NN)c(N)c12,-17.3,–,"29100 nM [falling, single point]"
CC(C)NC(=S)N/N=C/c1ccc2c(c1)OCCO2,16.9,–,"1160 nM [rising, partial curve]"
Cc1cccc(NC(=S)N2CCN(c3ccccc3)CC2)c1,14.9,–,"32600 nM [rising, single point]"

# From PubChem BioAssay AID2685 (National Center for Advancing Translational Sciences (NCATS), 2010)
